Measurements taken from patent US8071348B2, “Protein tyrosine phosphatase substrate-trapping double mutant and uses thereof” (Albert Einstein College of Medicine of Yeshiva University, priority 2002, dated 2011).
Like-named read-outs stand apart in the source and are kept apart here. At least one read-out could not be matched to a standard name with certainty. [ ]: non-standard residue; d: D form. F2Pmp = N[C@@H](Cc1ccc(C(F)(F)P(=O)(O)O)cc1)C(=O)O

Columns and labels:
[1] = Kinetic constants for PTP1B-catalyzed hydrolysis of pNPP; format: biochemical; details: pNPP as substrate; 25° C. and pH 7.0
Source text: The catalytic domain of PTP1B (residues 1 to 321) was used for in vitro study. PTP1B mutants, C215S, D181A, and Q262A, were described previously (9, 25, 26). PTP1B double mutants, D181A/C215S and C215S/Q262A, were generated by PCR reactions, according to the standard procedure of the Quick-Change™ site-directed mutagenesis kit (Stratagene), using pT7-7/PTP1B/C215S as a template. PTP1B double mutants, D181A/C215E and D181A/Q262A, were generated by similar PCR procedures, using pT7-7/PTP1B/D181A as a template. The recombinant wild-type and mutant PTP1Bs were expressed in E. coli, and purified to homogeneity as described (25, 27). Protein concentration was determined from absorbance measurement at 280 nm, using an absorbance coefficient of 1.24 for 1 mg/ml PTP1B.
PTP activity was assayed at 25° C. and pH 7.0, in a reaction mixture (0.2 ml) containing pNPP concentrations ranging from 0.2 to 5 Km. The following buffered solution was used for activity measurements: pH 7.0, 50 mM 3,3-dimethylglutarate, 1 mM EDTA; the ionic strength was 0.15 M, as adjusted by addition of NaCl. Initial rate measurements for the enzyme-catalyzed hydrolysis of pNPP were conducted as previously described (26). Michaelis-Menten kinetic parameters were determined from a direct fit of the data to the Michaelis-Menten equation, using the nonlinear regression program, KINETASYST (Intellikinetics, State College, Pa.).

[2] = pNPP as substrate; 30° C. and pH 7.0 (26); cited from earlier work

Row | Molecule | kcat/Km [1] | kcat/Km [2]
1 | wild-type PTP1B, catalytic domain (residues 1 to 321) (protein) MEMEKEFEQIDKSGSWAAIYQDIRHEASDFPCRVAKLPKNKNRNRYRDVSPFDHSRIKLHQEDNDYINASLIKMEEAQRSYILTQGPLPNTCGHFWEMVWEQKSRGVVMLNRVMEKGSLKCAQYWPQKEEKEMIFEDTNLKLTLISEDIKSYYTVRQLELENLTTQETREILHFHYTTWPDFGVPESPASFLNFLFKVRESGSLSPEHGPVVVHCSAGIGRSGTFCLADTCLLLMDKRKDPSSVDIKKVLLEMRKFRMGLIQTADQLRFSYLAVIEGAKFIMGDSSVQDQWKELSHEDLEPPPEHIPPPPRPPKRILEPHN | (4.1 ± 0.4) × 10^3 M^−1 s^−1 | 
2 | PTP1B/D181A, catalytic domain (residues 1 to 321) (protein) MEMEKEFEQIDKSGSWAAIYQDIRHEASDFPCRVAKLPKNKNRNRYRDVSPFDHSRIKLHQEDNDYINASLIKMEEAQRSYILTQGPLPNTCGHFWEMVWEQKSRGVVMLNRVMEKGSLKCAQYWPQKEEKEMIFEDTNLKLTLISEDIKSYYTVRQLELENLTTQETREILHFHYTTWPAFGVPESPASFLNFLFKVRESGSLSPEHGPVVVHCSAGIGRSGTFCLADTCLLLMDKRKDPSSVDIKKVLLEMRKFRMGLIQTADQLRFSYLAVIEGAKFIMGDSSVQDQWKELSHEDLEPPPEHIPPPPRPPKRILEPHN | (3.9 ± 1.5) × 10^2 M^−1 s^−1 | 
3 | Q262A: PTP1B mutant, Gln262 replaced by Ala, described previously (protein, UniProt P18031 1-435, looked up, variant Q262A) Tyrosine-protein phosphatase …: MEMEKEFEQIDKSGSWAAIYQDIRHEASDFPCRVAKLPKNKNRNRYRDVSPFDHSRIKLHQEDNDYINASLIKMEEAQRSYILTQGPLPNTCGHFWEMVWEQKSRGVVMLNRVMEKGSLKCAQYWPQKEEKEMIFEDTNLKLTLISEDIKSYYTVRQLELENLTTQETREILHFHYTTWPDFGVPESPASFLNFLFKVRESGSLSPEHGPVVVHCSAGIGRSGTFCLADTCLLLMDKRKDPSSVDIKKVLLEMRKFRMGLIATADQLRFSYLAVIEGAKFIMGDSSVQDQWKELSHEDLEPPPEHIPPPPRPPKRILEPHNGKCREFFPNHQWVKEETQEDKDCPIKEEKGSPLNAAPYGIESMSQDTEVRSRVVGGSLRGAQAASPAKGEPSLPEKDEDHALSYWKPFLVNMCVATVLTAGAYLCYRFLFNSNT |  | (3.6 ± 0.3) × 10^3 M^−1 s^−1
4 | PTP1B/D181A/Q262A, catalytic domain (residues 1 to 321) (enzyme, human, UniProt P18031 1-321, looked up, range 1-321; Used in vitro (ITC, kinetics); also called PTP1B substrate-trapping double mutant) MEMEKEFEQIDKSGSWAAIYQDIRHEASDFPCRVAKLPKNKNRNRYRDVSPFDHSRIKLHQEDNDYINASLIKMEEAQRSYILTQGPLPNTCGHFWEMVWEQKSRGVVMLNRVMEKGSLKCAQYWPQKEEKEMIFEDTNLKLTLISEDIKSYYTVRQLELENLTTQETREILHFHYTTWPAFGVPESPASFLNFLFKVRESGSLSPEHGPVVVHCSAGIGRSGTFCLADTCLLLMDKRKDPSSVDIKKVLLEMRKFRMGLIATADQLRFSYLAVIEGAKFIMGDSSVQDQWKELSHEDLEPPPEHIPPPPRPPKRILEPHN | (1.2 ± 0.2) × 10^3 M^−1 s^−1 | 
